Measurements taken from patent publication US12538701B2, “Compound and organic light emitting device comprising the same” (LG Chem, Ltd., priority 2020, dated 2026).

Test: Organic light emitting device evaluation with the compound as dopant of the light emitting layer
Experimental: A glass substrate thinly coated with indium tin oxide (ITO) to have a thickness of 500 Å was put into distilled water in which a detergent was dissolved, and ultrasonically washed. In this case, a product manufactured by Fischer Co., was used as the detergent, and distilled water twice filtered using a filter manufactured by Millipore Co., was used as the distilled water. After the ITO was washed for 30 minutes, ultrasonic washing was conducted twice repeatedly using distilled water for 10 minutes. After the washing using distilled water was completed, ultrasonic washing was conducted using isopropyl, and acetone solvents, and drying was conducted, and then the substrate was cleaned for 5 minutes, and then transferred to a glove box.
A coating composition, in which the following Compound B and the following Compound C (weight ratio of 2:8) were dissolved in 20 wt/v % cyclohexanone, was spin-coated (4000 rpm) on the ITO transparent electrode, and heat-treated (cured) at 200° C. for 30 minutes to form a hole injection layer with a thickness of 400 Å. A coating composition, in which the following Compound A (Mn: 27,900; Mw: 35,600; measured by gel permeation chromatography (GPC) on Agilent 1200 series, relative to PC standards) was dissolved in 6 wt/v % toluene, spin-coated (4000 rpm) on the hole injection layer, and heat-treated at 200° C. for 30 minutes to form a hole transport layer with a thickness of 200 Å.
A coating composition, in which Compound 1 prepared in Preparation Example 1 and the following Compound D (weight ratio of 2:98) were dissolved in 2 wt/v % cyclohexanone, spin-coated (4000 rpm) on the hole transport layer, and heat-treated at 180° C. for 30 minutes to form a light emitting layer with a thickness of 400 Å.
After being transferred to a vacuum depositor, the following Compound E was vacuum-deposited to a thickness of 350 Å on the light emitting layer to form an electron injection and transport layer.
LiF and aluminum were sequentially deposited to have a thickness of 10 Å and 1000 Å, respectively, on the electron injection and transport layer, thereby forming a cathode.
In the above-mentioned process, the vapor deposition rate of the organic material was maintained at 0.4 to 0.7 Å/sec, the deposition rate of LiF was maintained at 0.3 Å/sec, the deposition rate of aluminum was maintained at 2 Å/sec, and the degree of vacuum during the deposition was maintained at 2×10^−7 to 5×10^−8 torr.
An organic light emitting device was manufactured in the same manner as in Example 1, except that the compounds shown in Table 2 below were used instead of Compound 1 as a dopant of the light emitting layer.
An organic light emitting device was manufactured in the same manner as in Example 1, except that the compounds shown in Table 2 below were used instead of Compound 1 as a dopant in the light emitting layer.
The driving voltage, external quantum efficiency (EQE), and lifetime were measured by applying a current of 10 mA/cm^2 to the organic light emitting devices manufactured in the Examples and Comparative Examples, and the results are shown in Table 2 below. At this time, the external quantum efficiency (EQE) was calculated as “(the number of emitted photon)/(the number of injected charge carrier)*100”, and T90 means the time required for the luminance to be reduced to 90% of the initial luminance (500 nit).

c1ccc(-n2c3ccccc3c3cc(-c4ccc(N(c5ccc6ccccc6c5)c5ccc6c7c8ccc9c(c8ccc7n(-c7ccccc7)c6c5)c5ccc(N(c6ccc(-c7ccc8c(c7)c7ccccc7n8-c7ccccc7)cc6)c6ccc7ccccc7c6)cc5n9-c5ccccc5)cc4)ccc32)cc1 [Compound H, reference compound]
Driving voltage (V @10 mA/cm^2) (device with compound as dopant of light emitting layer (2:98 with Compound D)): 4.66 V | EQE (% @10 mA/cm^2) (external quantum efficiency, device with compound as dopant of light emitting layer): 7.11% | Lifetime (hr) (T90 @500 nit) (time for luminance to fall to 90% of initial luminance (500 nit), 10 mA/cm^2): 67 h
